Experimental data reported in publication PMC4107866.
No constants are given. Whether binding was seen depends on the method and setting. In cells and extracts the contact can be indirect. Binding calls can cover weak binding; strength is not graded here. Sequences can lack the tags named with a protein.

Amino acid sequences for entries named in this document (tags omitted). A change or cut given only in a name is not applied to a line headed by its entry.
UniProt Q9H0C5: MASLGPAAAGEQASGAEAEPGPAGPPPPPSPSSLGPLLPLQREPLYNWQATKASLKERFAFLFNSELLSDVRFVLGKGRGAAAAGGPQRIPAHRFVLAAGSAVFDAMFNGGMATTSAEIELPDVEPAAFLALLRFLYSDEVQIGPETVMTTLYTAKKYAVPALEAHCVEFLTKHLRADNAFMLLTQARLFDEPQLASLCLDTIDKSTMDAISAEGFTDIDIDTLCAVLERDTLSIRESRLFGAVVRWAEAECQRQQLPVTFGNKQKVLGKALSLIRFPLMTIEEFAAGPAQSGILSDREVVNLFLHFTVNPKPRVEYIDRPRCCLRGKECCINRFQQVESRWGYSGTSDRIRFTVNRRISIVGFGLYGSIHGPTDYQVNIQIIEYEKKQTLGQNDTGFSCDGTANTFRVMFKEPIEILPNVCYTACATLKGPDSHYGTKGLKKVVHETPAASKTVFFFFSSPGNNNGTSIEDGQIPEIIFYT

Key:
Assay in all cases: co-IP; HEK293 cells co-transfected with tagged proteins (FLAG-Cul3, MYC-BTB proteins, HA-CLWs); lysates in RIPA buffer, primary antibody then protein A-Sepharose, 1 hr each at 4°C, two washes with RIPA; immunoblot
[1] = target: MYC-Ctb73 deletion mutant without the BACK domain (human) (UniProt Q9H0C5)
[2] = target: MYC-Ctb73 deletion mutant without the Kelch domain (human) (UniProt Q9H0C5)
MYC-Ctb73ΔBTB (human) = MYC-Ctb73ΔBTB (human) (UniProt Q9H0C5)

Measured: binding

B1: HA-LRR5 (fibromodulin) (protein, UniProt Q06828 19-376)
chain: QYEDDPHWWFHYLRSQQSTYYDPYDPYPYETYEPYPYGVDEGPAYTYGSPSPPDPRDCPQECDCPPNFPTAMYCDNRNLKYLPFVPSRMKYVYFQNNQITSIQEGVFDNATGLLWIALHGNQITSDKVGRKVFSKLRHLERLYLDHNNLTRMPGPLPRSLRELHLDHNQISRVPNNALEGLENLTALYLQHNEIQEVGSSMRGLRSLILLDLSYNHLRKVPDGLPSALEQLYMEHNNVYTVPDSYFRGAPKLLYVRLSHNSLTNNGLASNTFNSSSLLELDLSYNQLQKIPPVNTNLENLYLQGNRINEFSISSFCTVVDVVNFSKLQVLRLDGNEIKRSAMPADAPLCLRLASLIEI
binds: [1] | [2] | MYC-Ctb73ΔBTB (human)
